For at least one compound, name, drawing or mass did not settle the structure.
System: bovine serum albumin
Assay: Blocking of methylglyoxal or glyoxal cross-linking (gel formation) of albumin, inventor's tests
Assay type: biochemical
Conditions: arginines: hydrochloride salts and free base forms

CN1CC(=O)NC1=N [creatinine, reference compound]
blocking of the cross-linking of albumin by methylglyoxal or glyoxal: do not block
